Test results from publication PMC9436816.
Results are given in words; binding and its absence hold for the method and conditions named. Binding seen in cells or lysates may run through a third protein. Some entries that bind do so weakly or less than the wild type.

Protein sequences, listed by entry. Tags and fused reporters are not part of them.
UniProt P14618: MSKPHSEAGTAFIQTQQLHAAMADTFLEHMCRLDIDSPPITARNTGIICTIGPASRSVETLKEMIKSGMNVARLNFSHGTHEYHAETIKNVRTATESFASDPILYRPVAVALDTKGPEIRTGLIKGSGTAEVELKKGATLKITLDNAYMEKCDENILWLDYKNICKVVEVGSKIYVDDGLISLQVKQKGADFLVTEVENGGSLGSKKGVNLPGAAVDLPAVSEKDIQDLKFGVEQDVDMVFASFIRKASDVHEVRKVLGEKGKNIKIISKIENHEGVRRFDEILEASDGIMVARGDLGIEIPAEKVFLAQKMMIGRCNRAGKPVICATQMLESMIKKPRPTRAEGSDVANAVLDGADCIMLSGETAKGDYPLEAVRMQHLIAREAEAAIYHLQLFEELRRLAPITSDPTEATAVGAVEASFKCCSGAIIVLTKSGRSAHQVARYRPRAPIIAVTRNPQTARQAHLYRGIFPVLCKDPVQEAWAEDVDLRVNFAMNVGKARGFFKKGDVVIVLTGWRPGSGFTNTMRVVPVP

Biological target: pyruvate kinase M2 (PKM2), endogenous (human (endogenous in A549)) (UniProt P14618)
Assay: co-IP; endogenous proteins of A549 lysate, IP with PKM2 or OGT antibody, WB; cells with or without EGF (100 ng/ml, 1 h), or serum-deprived and transfected with EGFR or EGFRvIII

binding: binds
B1: O-GlcNAcase (OGA), endogenous (enzyme, UniProt O60502 1-916)
chain: MVQKESQATLEERESELSSNPAASAGASLEPPAAPAPGEDNPAGAGGAAVAGAAGGARRFLCGVVEGFYGRPWVMEQRKELFRRLQKWELNTYLYAPKDDYKHRMFWREMYSVEEAEQLMTLISAAREYEIEFIYAISPGLDITFSNPKEVSTLKRKLDQVSQFGCRSFALLFDDIDHNMCAADKEVFSSFAHAQVSITNEIYQYLGEPETFLFCPTEYCGTFCYPNVSQSPYLRTVGEKLLPGIEVLWTGPKVVSKEIPVESIEEVSKIIKRAPVIWDNIHANDYDQKRLFLGPYKGRSTELIPRLKGVLTNPNCEFEANYVAIHTLATWYKSNMNGVRKDVVMTDSEDSTVSIQIKLENEGSDEDIETDVLYSPQMALKLALTEWLQEFGVPHQYSSRQVAHSGAKASVVDGTPLVAAPSLNATTVVTTVYQEPIMSQGAALSGEPTTLTKEEEKKQPDEEPMDMVVEKQEETDHKNDNQILSEIVEAKMAEELKPMDTDKESIAESKSPEMSMQEDCISDIAPMQTDEQTNKEQFVPGPNEKPLYTAEPVTLEDLQLLADLFYLPYEHGPKGAQMLREFQWLRANSSVVSVNCKGKDSEKIEEWRSRAAKFEEMCGLVMGMFTRLSNCANRTILYDMYSYVWDIKSIMSMVKSFVQWLGCRSHSSAQFLIGDQEPWAFRGGLAGEFQRLLPIDGANDLFFQPPPLTPTSKVYTIRPYFPKDEASVYKICREMYDDGVGLPFQSQPDLIGDKLVGGLLSLSLDYCFVLEDEDGICGYALGTVDVTPFIKKCKISWIPFMQEKYTKPNGDKELSEAEKIMLSFHEEQEVLPETFLANFPSLIKMDIHKKVTDPSVAKSMMACLLSSLKANGSRGAFCEVRPDDKRILEFYSKLGCFEIAKMEGFPKDVVILGRSL
